The source of these data is publication doi:10.1101/2023.07.10.548434.

Protein sequences, listed by entry. Tags and fused reporters are not part of them.
UniProt Q6FXU7: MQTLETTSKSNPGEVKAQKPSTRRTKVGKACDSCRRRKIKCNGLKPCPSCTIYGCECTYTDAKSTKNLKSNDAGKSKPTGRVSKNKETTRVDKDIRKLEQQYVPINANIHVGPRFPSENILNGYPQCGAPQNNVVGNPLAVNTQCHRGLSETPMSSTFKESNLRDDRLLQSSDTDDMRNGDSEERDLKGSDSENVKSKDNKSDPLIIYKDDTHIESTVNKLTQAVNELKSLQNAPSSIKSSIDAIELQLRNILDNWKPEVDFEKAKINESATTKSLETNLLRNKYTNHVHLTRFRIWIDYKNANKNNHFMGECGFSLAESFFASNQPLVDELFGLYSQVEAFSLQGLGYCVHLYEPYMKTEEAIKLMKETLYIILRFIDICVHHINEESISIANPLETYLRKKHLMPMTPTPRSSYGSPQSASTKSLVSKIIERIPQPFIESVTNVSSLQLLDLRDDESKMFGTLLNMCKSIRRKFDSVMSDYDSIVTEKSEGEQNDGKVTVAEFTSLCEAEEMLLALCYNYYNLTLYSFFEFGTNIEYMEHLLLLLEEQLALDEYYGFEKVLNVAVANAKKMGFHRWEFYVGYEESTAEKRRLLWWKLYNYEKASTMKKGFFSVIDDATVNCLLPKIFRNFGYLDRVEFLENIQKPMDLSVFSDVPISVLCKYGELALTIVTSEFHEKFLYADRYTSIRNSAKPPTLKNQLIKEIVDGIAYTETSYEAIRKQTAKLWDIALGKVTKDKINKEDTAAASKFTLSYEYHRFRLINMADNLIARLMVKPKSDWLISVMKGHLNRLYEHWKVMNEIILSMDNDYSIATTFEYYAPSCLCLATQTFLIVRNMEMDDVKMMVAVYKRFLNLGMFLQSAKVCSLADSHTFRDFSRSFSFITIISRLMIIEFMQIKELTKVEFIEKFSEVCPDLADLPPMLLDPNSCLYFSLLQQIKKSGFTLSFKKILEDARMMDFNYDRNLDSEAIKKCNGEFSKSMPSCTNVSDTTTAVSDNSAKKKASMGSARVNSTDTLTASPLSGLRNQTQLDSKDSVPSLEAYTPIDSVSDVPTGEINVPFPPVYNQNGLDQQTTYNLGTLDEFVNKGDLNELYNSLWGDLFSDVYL

These are yes or no findings as the source states them, for the method shown. For some assays here: Binding seen in cells or lysates may run through a third protein. Some entries that bind do so weakly or less than the wild type.

Assay [1] deals with Pdr1 (wild-type) (Candida glabrata) (UniProt Q6FXU7). Kind of assay: co-IP.
Assay [2] addresses tandem affinity purification (TAP)-tagged form of Pdr1 (Candida glabrata) (UniProt Q6FXU7). Description: tandem affinity purification.

Regarding “Cna1-2X FLAG protein (from UniProt Q6FKJ3 1-575) (enzyme)”, in assay [1], the binding entry is “binds”. In the case of “catalytic subunit of the protein phosphatase calcineurin (Cna1) (from UniProt Q6FKJ3 1-575) (enzyme)”, the binding result in assay [2] is “binds”.
